Test results from PubChem BioAssay AID504834 (National Center for Advancing Translational Sciences (NCATS), 2011).
Out of some 320,000 compounds screened, about 22,000 (6.9%) were called active. This list was built around the results that the source calls inconclusive (neither active nor inactive); the mix of calls is not that of the screen. Calls follow the shape of the dose curve; as a rule, active = well fitted inhibition curve with a large enough effect; inconclusive = small, poorly fitted or top-dose-only effect, or another doubt; inactive = no such curve, though single readings can be large or run the other way. Potencies of inconclusive entries are doubtful fits and often do not repeat. Where a SMILES comes first, the peptide text is derived from it. The star is where a group is joined. Boc = CC(C)(C)OC(=O)*

Assay: Primary qHTS for delayed death inhibitors of the malarial parasite plastid, 96 hour incubation
Details: P. falciparum luciferase reporter growth; series mostly up to 28.7 µM
Outline: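 P. falciparum expressing integrated firefly luciferase grown in erythrocytes (2% hematocrit, 0.05% parasitemia final) with compounds for 96 hours at 37 C, 5% CO2. Growth inhibition read as loss of luminescence after adding luciferase detection reagent.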
Potency is read from the fitted curve at half-maximal effect.

Row | Compound | Potency
1 | Cc1ccc(NC(=O)C(C)N2C(=O)c3ccccc3C2=O)cc1S(=O)(=O)N1CCOCC1 (stereo not drawn) | inactive
2 | COCC(C)n1c(C)cc(C(=O)COC(=O)c2c(C)nn(-c3ccccc3)c2C)c1C (stereo not drawn) | inconclusive: 0.0033 µM [inhibitor, full curve, poor fit]
3 | COCc1ccc(CN2CCC(Oc3ccc(C(=O)NCc4ccccn4)cc3)CC2)o1 | inconclusive: 10.4 µM [inhibitor, single point]
4 | Cc1cc(=O)n2nc(N3CCCC(C(=O)NCc4ccccc4Br)C3)sc2n1 (stereo not drawn) | inconclusive: 10.4 µM [inhibitor, single point]
5 | COc1cc(S(=O)(=O)N2CCOCC2)ccc1NC(=O)CN1c2cccc3cccc(c23)S1(=O)=O | inconclusive: 16.5 µM [inhibitor, single point]
6 | COCCn1nnnc1C(c1cccs1)N1CCN(c2nc3ccccc3s2)CC1 (stereo not drawn) | inconclusive: 0.0029 µM [inhibitor, full curve, poor fit]
7 | Cc1nn(Cc2noc(C(=O)NC3CCC(C)CC3)n2)c(C)c1Br (stereo not drawn) | inconclusive: 7.38 µM [inhibitor, partial curve, poor fit]
8 | COC(=O)c1ccc(CSc2ccc3nnc(-c4ccc(OC)cc4)n3n2)o1 | inconclusive: 18.5 µM [inhibitor, single point]
9 | O=C(NCCCN1CCOCC1)c1cc2c(s1)-c1ccccc1OC2 | inactive
10 | CCCNc1nc2c(c(=O)[nH]c(=O)n2C)n1Cc1cccc(Br)c1 | inconclusive: 0.294 µM [inhibitor, single point]
11 | CCN(CC(=O)Nc1ccc(NC(C)=O)cc1)C(=O)/C=C/c1ccc(S(=O)(=O)N2CCCCCC2)cc1 | active: 4.65 µM
12 | CCOC(=O)c1ccc(N2C(=O)c3cccc4c(C(=O)O)ccc(c34)C2=O)cc1 | inconclusive: 11.7 µM [inhibitor, partial curve, poor fit]
13 | O=C(Nc1ccncc1)c1ccc2ncsc2c1 | inconclusive: 14.7 µM [inhibitor, partial curve, poor fit]
14 | COc1cc(CC(=O)O)c([N+](=O)[O-])cc1OC | inactive
15 | CCOC(=O)c1oc2c(CN3CCN(C)CC3)c(O)ccc2c(=O)c1-c1ccc(Br)cc1 | inconclusive: 10.4 µM [inhibitor, single point]
16 | C=CCOc1c(Br)cc(C2NC(=O)NC(C)=C2C(C)=O)cc1OCC (stereo not drawn) | inconclusive: 6.57 µM [inhibitor, partial curve, poor fit]
17 | CCN(CC)c1ccc(C(=O)N2CCN(Cc3ccccc3)CC2)cc1 | inconclusive: 18.5 µM [inhibitor, single point]
18 | COc1ccccc1NC(=O)CCNS(=O)(=O)c1ccc2[nH]c(=O)oc2c1 | inconclusive: 11.7 µM [inhibitor, single point]
19 | CC(=O)Nc1ccc(NC(=O)C(C)Oc2ccccc2C(=O)NCc2ccccc2)cc1 (stereo not drawn) | inconclusive: 13.1 µM [inhibitor, single point]
20 | COc1ccccc1OCC(O)CN1C(=O)NC(C)(C)C1=O (stereo not drawn) | inconclusive: 20.8 µM [inhibitor, partial curve, poor fit]
21 | Cc1ccc(N(CC(=O)NC(C)(C)C)C(=O)CS(=O)CC(=O)Nc2ccc3c(c2)OCO3)cc1 (stereo not drawn) | inconclusive: 16.5 µM [inhibitor, partial curve, poor fit]

Row | Compound | Potency
22 | Cc1ccc(C(=O)NNC(=O)c2cccs2)cc1 | inconclusive: 4.15 µM [inhibitor, full curve, poor fit]
23 | C[C@]12CC[C@H]3C(=CCc4cc(O)ccc43)[C@@H]1CCC2=O | inconclusive: 11.7 µM [inhibitor, partial curve]
24 | Cn1c(SCC(=O)Nc2ccc3[nH]c(=O)[nH]c3c2)nnc1-c1ccc(F)cc1 | inactive
25 | Cc1ccccc1-n1c(SC(C)C(=O)N2CCN(C)CC2)nc2ccccc2c1=O (stereo not drawn) | inconclusive: 1.85 µM [inhibitor, partial curve]
26 | Cn1nc(C(=O)OCC(=O)NC2CCS(=O)(=O)C2)c2ccccc2c1=O (stereo not drawn) | inactive
27 | CCOC(=O)Cn1c(CN(Cc2ccccc2)Cc2ccccc2)nc2c1c(=O)n(C)c(=O)n2C | inconclusive: 11.7 µM [inhibitor, partial curve]
28 | Cc1nc(Br)c(Br)c(C)c1Br | inactive
29 | O=C(N1CCOCC1)N1CCN(C(c2ccccc2)c2ccccc2)CC1 | inconclusive: 8.28 µM [inhibitor, partial curve, poor fit]
30 | CCOC(=O)c1ccc(NC(=O)CSc2nc(=O)n(CCN3CCOCC3)c3c2CCC3)cc1 | inconclusive: 11.7 µM [inhibitor, partial curve]
31 | COc1ccc(/C=N/NC(=O)c2cc[n+]([O-])cc2)cc1O | inactive
32 | COc1ccc(S(=O)(=O)N2CCCCCC2)cc1C(=O)NCCOc1ccc(C)cc1 | inconclusive: 13.1 µM [inhibitor, single point]
33 | Cc1ccc(-c2ccnc(-c3ccc(O)cc3)n2)cc1 | inactive
34 | Cc1oc2c(C)c3oc(=O)c(CCC(=O)N4CCC(C(=O)NCCC(=O)O)(c5ccccc5)CC4)c(C)c3cc2c1C | inconclusive: 10.4 µM [inhibitor, partial curve]
35 | Cc1ccc(Nc2cnn(C34CC5CC(CC(CC(=O)O)(C5)C3)C4)c(=O)c2Cl)cc1C | inconclusive: 13.1 µM [inhibitor, partial curve, poor fit]
36 | Nc1ncnc2nc(SCCN3CCCCC3)[nH]c12 | inactive
37 | CC(=O)Nc1ccc(S(=O)(=O)NCCC(=O)OCc2ccc([N+](=O)[O-])cc2)cc1 | inconclusive: 0.0657 µM [inhibitor, full curve, poor fit]
38 | CCC(C)Nc1nc(Cl)nc(NCCOc2ccccc2)n1 (stereo not drawn) | inconclusive: 3.29 µM [inhibitor, single point]
39 | O=C(Cn1c(=O)n(-c2ccc(F)cc2)c(=O)c2sccc21)NC1CCCCC1 | inconclusive: 18.5 µM [inhibitor, single point]
40 | Cc1cc(C(=O)Nc2ccccc2)oc1C | inconclusive: 0.0052 µM [inhibitor, full curve, poor fit]
41 | CCN1CCN(C(c2cccs2)C(C)NC(=O)CC(C)C)CC1 (stereo not drawn) | inconclusive: 16.5 µM [inhibitor, single point]
42 | COc1ccc(C(=O)CSc2nnc(CN3CCCCC3)n2-c2ccc(F)cc2)cc1OC | inactive

Quoted at random: three compounds from above.
Row | Compound | Potency
38 | CCC(C)Nc1nc(Cl)nc(NCCOc2ccccc2)n1 (stereo not drawn) | inconclusive: 3.29 µM [inhibitor, single point]
31 | COc1ccc(/C=N/NC(=O)c2cc[n+]([O-])cc2)cc1O | inactive
34 | Cc1oc2c(C)c3oc(=O)c(CCC(=O)N4CCC(C(=O)NCCC(=O)O)(c5ccccc5)CC4)c(C)c3cc2c1C | inconclusive: 10.4 µM [inhibitor, partial curve]

(continued)

Row | Compound | Potency
43 | Cc1ccc(N/N=C(\C#N)C(=O)c2ccsc2)cc1 | inactive
44 | O=C(/C=C/Nc1ccc(F)c(F)c1)c1cccs1 | active: 10.4 µM
45 | CCN1C(=O)/C(=C\c2ccc(-c3cccc(C(=O)OC)c3)o2)SC1=Nc1ccc(C(=O)O)cc1 | inconclusive: 13.1 µM [inhibitor, single point]
46 | CN(Cc1ccccc1)C(=O)c1[nH]cnc1C(=O)N[C@@H](Cc1ccccc1)C(=O)OC(C)(C)C | inconclusive: 18.5 µM [inhibitor, single point]
47 | Cc1csc(C(C#N)C(=O)c2ccncc2)n1 (stereo not drawn) | inconclusive: 4.15 µM [inhibitor, single point]
48 | COc1ccc(NC(=O)C(=O)NCCC2CCCCN2S(=O)(=O)c2ccc(F)cc2)cc1 (stereo not drawn) | inconclusive: 9.28 µM [inhibitor, partial curve, poor fit]
49 | COc1ccc(OC)c(CNC(=O)CCCc2cn(C)c3ccccc23)c1 | inconclusive: 14.7 µM [inhibitor, partial curve, poor fit]
50 | Cc1cc(C)c2c(-n3cccc3)nn(CC#N)c2n1 | inconclusive: 4.15 µM [inhibitor, partial curve, poor fit]
51 | COc1cc2c(cc1OC)CN(c1ccc3ccccc3n1)CC2 | inconclusive: 1.04 µM [inhibitor, partial curve, poor fit]
52 | O=C(NCc1ccncc1)C1CCN(S(=O)(=O)c2cccc(C(F)(F)F)c2)CC1 | inconclusive: 5.86 µM [inhibitor, partial curve]
53 | O=C1/C(=C\c2ccco2)SC(=S)N1C1CCS(=O)(=O)C1 (stereo not drawn) | inconclusive: 18.5 µM [inhibitor, single point]
54 | Cc1cccc(N2CCN(C(=O)CCC(=O)N3Cc4ccccc4Oc4ncccc43)CC2)c1C | inconclusive: 0.0657 µM [inhibitor, full curve, poor fit]
55 | COc1ccc(C(=O)N2CCc3c([nH]c4ccccc34)C2C(F)(F)F)cc1 (stereo not drawn) | inconclusive: 16.5 µM [inhibitor, partial curve, poor fit]
56 | Cc1ccc(S(=O)(=O)N2CC=C(C(=O)NC3CC3)CC2)cc1 | inconclusive: 7.38 µM [inhibitor, single point]
57 | CCOc1cc(CNC(=O)CCCn2c(=O)c3cccn3c3cccnc32)cc(OCC)c1OCC | inactive
58 | COc1ccc(NC(=O)Nc2ccccc2)cc1S(=O)(=O)N1CCCCC1 | inactive
59 | CC(C)CC(NC(=O)OC(C)(C)C)C(=O)NC(C(=O)N1CCCC1C(N)=O)C(C)C (stereo not drawn) (Boc-Leu-Val-Pro-NH2; configuration not given here) | inconclusive: 1.65 µM [inhibitor, partial curve]
60 | CN1CCN(C(=O)/C(=C/c2cn(S(=O)(=O)N(C)C)c3ccccc23)NC(=O)c2ccccc2F)CC1 | inconclusive: 11.7 µM [inhibitor, partial curve]
61 | O=C(c1n[nH]c2ccccc12)N1CCN(c2ccc(F)cc2)CC1 | inconclusive: 11.7 µM [inhibitor, partial curve, poor fit]
62 | CCCN(CCC)S(=O)(=O)c1ccc(C)cc1 | inactive
63 | CCCCCCC(=O)N(O)C1CC(=O)N(c2ccc(Br)cc2)C1=O (stereo not drawn) | inactive
